Consider two molecules from PMC9160021, “Artificial intelligence-assisted cryoEM structure of Bfr2-Lcp5 complex observed in the yeast small subunit processome” (Communications Biology, 2022).

Results are given in words; binding and its absence hold for the method and conditions named. For some assays here: Binding seen in cells or lysates may run through a third protein. Some entries that bind do so weakly or less than the wild type. Tags and fused reporters may be left off the sequences shown.

Assay [1] has as its target T1, MBP-Bfr2(266–432) (S. cerevisiae (genomic DNA of BY4741 strain)) (UniProt Q06631).
T1 sequence: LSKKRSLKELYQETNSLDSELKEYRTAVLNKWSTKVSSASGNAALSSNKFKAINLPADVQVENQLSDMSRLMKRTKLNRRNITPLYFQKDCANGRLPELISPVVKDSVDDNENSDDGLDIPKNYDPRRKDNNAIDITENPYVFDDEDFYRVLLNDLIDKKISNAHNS
Description: pull-down; in cell: E. coli cells expressing MBP-Bfr2(266–432) or Lcp5(1–160), harvested as a mixture of both or individually, lysed, loaded on and eluted from an amylose column; SDS-PAGE.

Assay [2] has as its target T2, MBP-Bfr2(360–432) (S. cerevisiae (genomic DNA of BY4741 strain)) (UniProt Q06631).
T2 sequence: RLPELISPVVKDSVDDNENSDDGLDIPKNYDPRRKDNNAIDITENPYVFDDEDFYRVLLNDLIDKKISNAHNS
Description: pull-down; in vitro: purified MBP, MBP-Bfr2(360–432) or MBP-Bfr2(266–432) as bait with purified His-Lcp5(1–160); both purified.

B1: Lcp5(1–160), untagged (domain or fragment, UniProt P40079 1-160)
chain: MSELNALLKDINGSLTATSESLERLSGIYSNSATDEIPESNQLHEHLFYDAKKPAEKVSLLSLKNGSMLGYINSLLMLIGNRLDDECKDPSAMDARERSIQHRVVLERGVKPLEKKLAYQLDKLTRAYVKMEKEYKDAEKRALEKSTLVNHSGNDDSEDD
For the molecule B1, in assay [1], the binding result is on record as “binds”.

B2: His-Lcp5(1–160) (domain or fragment, S. cerevisiae, UniProt P40079 1-160, looked up)
chain: B1 chain
notes: Lcp5, S. cerevisiae, residues 1–160, polyhistidine tagged; The methods describe only the cloning of the untagged Lcp5(1–160); also called polyhistidine tagged Lcp5 fragment 1–160; source: bacteria expression host, purified
As for B2, the binding entry in assay [2] is listed as “no binding”.
